Cell number after 72 h of treatment

Source: doi:10.1371/journal.pone.0140310, primary screening data, rounded.

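Human melanoma cells were exposed to a pair of drugs for 72 h in 1,536-well plates and read by automated microscopy after fixing and staining. Values are the number of DAPI-stained nuclei as a percentage of the DMSO control: 100 is no effect, lower means fewer cells. Concentrations were fixed for each drug; these are the lower of two levels, a fifth of the higher. The file gives one value for each pair and line, without errors, so small differences may be noise.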
Only some of the drugs and lines screened are listed, without regard to their results.
An entry leaves out what has no value listed here.

Compounds and concentrations:
GSK650394: O=C(O)c1ccc(-c2c[nH]c3ncc(-c4ccccc4)cc23)cc1C1CCCC1 at 0.16 µM
vorinostat: O=C(CCCCCCC(=O)Nc1ccccc1)NO at 0.08 µM
gemcitabine: Nc1ccn([C@@H]2O[C@H](CO)[C@@H](O)C2(F)F)c(=O)n1 at 0.0004 µM
VX-702: NC(=O)c1ccc(N(C(N)=O)c2c(F)cccc2F)nc1-c1ccc(F)cc1F at 0.4 µM
fingolimod: CCCCCCCCc1ccc(CCC(N)(CO)CO)cc1 at 2 µM
BMS-536924: Cc1cc(N2CCOCC2)cc2[nH]c(-c3c(NC[C@@H](O)c4cccc(Cl)c4)cc[nH]c3=O)nc12 at 0.2 µM
PF-04217903: OCCn1cc(-c2cnc3nnn(Cc4ccc5ncccc5c4)c3n2)cn1 at 1 µM
SNS-032: CC(C)(C)c1cnc(CSc2cnc(NC(=O)C3CCNCC3)s2)o1 at 0.01 µM

Results for VX-702 + PF-04217903 are C32: 108.
Results for SNS-032 + BMS-536924 are C32: 85.1.
Results for GSK650394 + gemcitabine are COLO 800: 82.3; A375: 99.2; C32: 88.8; LOX IMVI: 42.3; IST-MEL1: 77.0; IPC-298: 101; COLO 829: 108; LB2518-MEL: 99.8.
Results for vorinostat + fingolimod are A375: 69.6; C32: 111.